Data reported in PMC3100304.
No constants are given. Whether binding was seen depends on the method and setting. Binding seen in cells or lysates may run through a third protein. Some entries that bind do so weakly or less than the wild type.

The chains behind the UniProt entries cited, without tags or fusion partners.
UniProt Q04207: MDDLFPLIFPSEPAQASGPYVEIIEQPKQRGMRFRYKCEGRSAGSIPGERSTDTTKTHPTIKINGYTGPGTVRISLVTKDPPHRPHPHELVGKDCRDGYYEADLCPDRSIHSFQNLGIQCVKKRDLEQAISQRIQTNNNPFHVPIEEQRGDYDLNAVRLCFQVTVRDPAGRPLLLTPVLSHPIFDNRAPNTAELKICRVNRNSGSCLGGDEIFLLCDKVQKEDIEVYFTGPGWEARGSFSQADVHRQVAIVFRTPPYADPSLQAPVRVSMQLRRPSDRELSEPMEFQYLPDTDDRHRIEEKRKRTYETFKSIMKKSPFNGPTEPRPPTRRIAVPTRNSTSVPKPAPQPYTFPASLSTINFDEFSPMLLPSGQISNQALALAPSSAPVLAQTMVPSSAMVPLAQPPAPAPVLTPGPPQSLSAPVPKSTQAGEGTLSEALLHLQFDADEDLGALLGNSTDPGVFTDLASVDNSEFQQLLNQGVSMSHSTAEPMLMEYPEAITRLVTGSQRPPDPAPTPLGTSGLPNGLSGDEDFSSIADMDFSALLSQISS
UniProt Q61501: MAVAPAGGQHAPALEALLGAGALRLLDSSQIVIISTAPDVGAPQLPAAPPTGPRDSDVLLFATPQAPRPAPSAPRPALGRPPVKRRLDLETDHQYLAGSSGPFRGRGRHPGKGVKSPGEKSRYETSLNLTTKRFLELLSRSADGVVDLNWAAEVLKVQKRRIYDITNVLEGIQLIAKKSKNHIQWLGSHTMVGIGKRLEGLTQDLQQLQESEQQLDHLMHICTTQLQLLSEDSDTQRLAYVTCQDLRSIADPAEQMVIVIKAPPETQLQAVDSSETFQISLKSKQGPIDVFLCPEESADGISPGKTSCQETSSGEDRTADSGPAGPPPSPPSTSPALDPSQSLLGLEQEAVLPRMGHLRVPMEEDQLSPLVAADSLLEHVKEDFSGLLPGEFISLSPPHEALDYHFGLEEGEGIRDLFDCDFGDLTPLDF

Target: p65 subunit of NF-κB (mouse heart) (mouse (endogenous in heart)) (UniProt Q04207)
Assay: co-IP; protein extracts of heart of TNF1.6 or wild-type mice precipitated with anti-p65, blotted with anti-E2F1

E2F1 (mouse heart) (from UniProt Q61501 1-430)
binding: binds
